The text below walks through data of PMC8579991.

Chains of the proteins cited; added tags and fusions are not shown. Lines headed by an entry give the natural chain unless they say otherwise; changes in a name come on top.
UniProt P02647: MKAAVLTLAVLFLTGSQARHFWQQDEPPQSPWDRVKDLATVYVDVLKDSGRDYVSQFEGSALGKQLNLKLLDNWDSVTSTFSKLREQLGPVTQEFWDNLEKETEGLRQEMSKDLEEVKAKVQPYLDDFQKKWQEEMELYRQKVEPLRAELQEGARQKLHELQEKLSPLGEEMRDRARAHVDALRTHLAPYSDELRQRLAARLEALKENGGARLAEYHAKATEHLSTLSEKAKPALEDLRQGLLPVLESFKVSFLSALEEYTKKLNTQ
UniProt O95445: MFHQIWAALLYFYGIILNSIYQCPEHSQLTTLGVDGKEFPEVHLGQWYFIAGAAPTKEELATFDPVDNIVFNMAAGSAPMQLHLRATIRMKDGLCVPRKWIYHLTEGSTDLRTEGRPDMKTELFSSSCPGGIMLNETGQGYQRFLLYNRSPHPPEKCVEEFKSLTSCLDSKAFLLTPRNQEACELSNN

No constants are given. Whether binding was seen depends on the method and setting. In cells and extracts the contact can be indirect. Here binding means that the protein was enriched with, or labelled near, the bait; the list need not be complete.

The experiment concerns the target apolipoprotein A1 (apoA1) (human (endogenous in plasma)) (UniProt P02647). As to the kind of experiment: affinity purification with mass spectrometry; anti-apoA1 immunoprecipitation from human plasma; apolipoproteins of the bound fraction by MS; isotype control.

With “apolipoprotein M (apoM) (from UniProt O95445 1-188)”, the binding entry is “binds”.

B1: apolipoprotein A4 (apoA4) (protein, UniProt P06727 21-396)
chain: EVSADQVATVMWDYFSQLSNNAKEAVEHLQKSELTQQLNALFQDKLGEVNTYAGDLQKKLVPFATELHERLAKDSEKLKEEIGKELEELRARLLPHANEVSQKIGDNLRELQQRLEPYADQLRTQVSTQAEQLRRQLTPYAQRMERVLRENADSLQASLRPHADELKAKIDQNVEELKGRLTPYADEFKVKIDQTVEELRRSLAPYAQDTQEKLNHQLEGLTFQMKKNAEELKARISASAEELRQRLAPLAEDVRGNLRGNTEGLQKSLAELGGHLDQQVEEFRRRVEPYGENFNKALVQQMEQLRQKLGPHAGDVEGHLSFLEKDLRDKVNSFFSTFKEKESQDKTLSLPELEQQQEQQQEQQQEQVQMLAPLES
As for B1, the binding result was “binds”.
